Assay results taken from PMC10944510.
Results are given in words; binding and its absence hold for the method and conditions named. Binding seen in cells or lysates may run through a third protein. A yes stands for co-enrichment or nearness to the bait. Other partners may have been found. Sequences can lack the tags named with a protein.

Protein sequences, listed by entry. Tags and fused reporters are not part of them.
UniProt Q5TZA2: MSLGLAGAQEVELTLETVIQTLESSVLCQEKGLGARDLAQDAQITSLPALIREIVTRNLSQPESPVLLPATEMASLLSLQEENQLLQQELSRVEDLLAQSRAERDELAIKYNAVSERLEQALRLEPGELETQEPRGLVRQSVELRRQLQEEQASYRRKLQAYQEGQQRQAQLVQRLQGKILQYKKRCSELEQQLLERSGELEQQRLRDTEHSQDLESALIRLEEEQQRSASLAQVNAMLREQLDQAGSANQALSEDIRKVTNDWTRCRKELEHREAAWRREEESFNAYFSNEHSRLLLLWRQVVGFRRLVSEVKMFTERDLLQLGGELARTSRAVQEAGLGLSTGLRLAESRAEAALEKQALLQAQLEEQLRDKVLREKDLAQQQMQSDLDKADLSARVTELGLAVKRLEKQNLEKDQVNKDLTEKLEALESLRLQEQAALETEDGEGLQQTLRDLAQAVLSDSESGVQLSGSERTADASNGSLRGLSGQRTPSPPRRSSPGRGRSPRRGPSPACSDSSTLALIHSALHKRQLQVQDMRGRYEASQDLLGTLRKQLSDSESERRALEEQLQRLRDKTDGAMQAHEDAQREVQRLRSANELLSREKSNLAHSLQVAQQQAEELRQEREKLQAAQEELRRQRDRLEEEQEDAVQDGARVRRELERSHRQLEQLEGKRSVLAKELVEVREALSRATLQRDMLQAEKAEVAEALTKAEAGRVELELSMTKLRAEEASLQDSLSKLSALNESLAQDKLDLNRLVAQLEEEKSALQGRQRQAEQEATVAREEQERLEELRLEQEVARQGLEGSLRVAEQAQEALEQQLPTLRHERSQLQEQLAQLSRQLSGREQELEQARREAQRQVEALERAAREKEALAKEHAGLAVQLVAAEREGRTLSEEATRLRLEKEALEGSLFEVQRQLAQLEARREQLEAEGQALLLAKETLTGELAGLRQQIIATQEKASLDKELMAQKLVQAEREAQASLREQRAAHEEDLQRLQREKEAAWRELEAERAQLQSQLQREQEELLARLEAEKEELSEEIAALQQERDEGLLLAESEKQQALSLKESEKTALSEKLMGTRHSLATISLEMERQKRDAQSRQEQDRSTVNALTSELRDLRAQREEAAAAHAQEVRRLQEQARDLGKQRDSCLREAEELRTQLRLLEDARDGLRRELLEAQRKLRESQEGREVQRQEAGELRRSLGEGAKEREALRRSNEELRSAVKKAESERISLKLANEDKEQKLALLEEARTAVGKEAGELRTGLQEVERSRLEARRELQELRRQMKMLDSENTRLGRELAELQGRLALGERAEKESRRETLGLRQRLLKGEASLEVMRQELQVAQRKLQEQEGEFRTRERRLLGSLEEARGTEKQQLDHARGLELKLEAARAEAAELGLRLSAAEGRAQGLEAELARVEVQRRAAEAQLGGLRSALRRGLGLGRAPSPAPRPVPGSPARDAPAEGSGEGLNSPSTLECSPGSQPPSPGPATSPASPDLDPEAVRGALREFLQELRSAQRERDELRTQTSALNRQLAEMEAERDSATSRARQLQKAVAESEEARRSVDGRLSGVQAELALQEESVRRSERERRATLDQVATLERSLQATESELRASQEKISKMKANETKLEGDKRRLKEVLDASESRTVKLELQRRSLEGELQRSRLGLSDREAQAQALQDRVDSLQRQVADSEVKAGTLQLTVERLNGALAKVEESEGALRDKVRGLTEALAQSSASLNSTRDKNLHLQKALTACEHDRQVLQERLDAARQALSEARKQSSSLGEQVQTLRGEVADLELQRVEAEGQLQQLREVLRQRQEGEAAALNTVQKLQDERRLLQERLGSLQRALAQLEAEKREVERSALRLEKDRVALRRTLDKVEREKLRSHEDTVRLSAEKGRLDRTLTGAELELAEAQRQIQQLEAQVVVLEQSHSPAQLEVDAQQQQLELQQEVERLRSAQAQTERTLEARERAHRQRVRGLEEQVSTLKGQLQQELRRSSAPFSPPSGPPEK

T1: FLAG-TurboID-Nek2A (UniProt P51955)
T1 sequence: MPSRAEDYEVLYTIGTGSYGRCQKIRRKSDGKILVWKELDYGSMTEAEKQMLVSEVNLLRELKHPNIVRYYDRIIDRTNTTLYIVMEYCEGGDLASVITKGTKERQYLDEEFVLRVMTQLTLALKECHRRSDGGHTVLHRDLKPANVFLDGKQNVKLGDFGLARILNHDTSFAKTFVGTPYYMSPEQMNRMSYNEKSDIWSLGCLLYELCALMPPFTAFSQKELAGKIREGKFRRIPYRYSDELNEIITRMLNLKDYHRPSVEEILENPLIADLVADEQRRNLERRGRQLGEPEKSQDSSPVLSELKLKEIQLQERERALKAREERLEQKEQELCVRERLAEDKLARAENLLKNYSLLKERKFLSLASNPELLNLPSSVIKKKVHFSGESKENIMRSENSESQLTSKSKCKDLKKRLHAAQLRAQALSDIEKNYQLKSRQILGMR

B1: LRRC45 (protein, UniProt Q96CN5 1-670)
chain: MEEFRRSYSRLCRESGAEPQEAVLQQLHQLPRGRLDLATQSLTVETCRALGKLLPRETLCTELVLSDCMLSEEGATLLLRGLCANTVLRFLDLKGNNLRAAGAEALGKLLQQNKSIQSLTLEWNSLGTWDDAFATFCGGLAANGALQRLDLRNNQISHKGAEELALALKGNTTLQQLDLRWNNVGLLGGRALMNCLPSNRTLWRLDLAGNNIPGDVLRAVEQAMGHSQDRLTTFQENQARTHVLSKEVQHLREEKSKQFLDLMETIDKQREEMAKSSRASAARVGQLQEALNERHSIINALKAKLQMTEAALALSEQKAQDLGELLATAEQEQLSLSQRQAKELKLEQQEAAERESKLLRDLSAANEKNLLLQNQVDELERKFRCQQEQLFQTRQEMTSMSAELKMRAIQAEERLDMEKRRCRQSLEDSESLRIKEVEHMTRHLEESEKAMQERVQRLEAARLSLEEELSRVKAAALSERGQAEEELIKAKSQARLEEQQRLAHLEDKLRLLAQARDEAQGACLQQKQVVAEAQTRVSQLGLQVEGLRRRLEELQQELSLKDQERVAEVSRVRVELQEQNGRLQAELAAQEALREKAAALERQLKVMASDHREALLDRESENASLREKLRLREAEIARIRDEEAQRASFLQNAVLAYVQASPVRTLSPPK
B2: KIF2C (protein, UniProt Q99661 1-725)
chain: MAMDSSLQARLFPGLAIKIQRSNGLIHSANVRTVNLEKSCVSVEWAEGGATKGKEIDFDDVAAINPELLQLLPLHPKDNLPLQENVTIQKQKRRSVNSKIPAPKESLRSRSTRMSTVSELRITAQENDMEVELPAAANSRKQFSVPPAPTRPSCPAVAEIPLRMVSEEMEEQVHSIRGSSSANPVNSVRRKSCLVKEVEKMKNKREEKKAQNSEMRMKRAQEYDSSFPNWEFARMIKEFRATLECHPLTMTDPIEEHRICVCVRKRPLNKQELAKKEIDVISIPSKCLLLVHEPKLKVDLTKYLENQAFCFDFAFDETASNEVVYRFTARPLVQTIFEGGKATCFAYGQTGSGKTHTMGGDLSGKAQNASKGIYAMASRDVFLLKNQPCYRKLGLEVYVTFFEIYNGKLFDLLNKKAKLRVLEDGKQQVQVVGLQEHLVNSADDVIKMIDMGSACRTSGQTFANSNSSRSHACFQIILRAKGRMHGKFSLVDLAGNERGADTSSADRQTRMEGAEINKSLLALKECIRALGQNKAHTPFRESKLTQVLRDSFIGENSRTCMIATISPGISSCEYTLNTLRYADRVKELSPHSGPSGEQLIQMETEEMEACSNGALIPGNLSKEEEELSSQMSSFNEAMTQIRELEEKAMEELKEIIQQGPDWLELSEMTEQPDYDLETFVNKAESALAQQAKHFSALRDVIKALRLAMQLEEQASRQISSKKRPQ

Target: T1, FLAG-TurboID-Nek2A
Assay: proximity labelling; FLAG-TurboID-Nek2A (WT or K37R) expressed in cells; after biotinylation lysates incubated overnight with streptavidin beads at 4 °C, on-bead trypsin digestion, mass spectrometry (Q Exactive HF; MaxQuant LFQ)

Molecule	binding
Rootletin (CROCC) (from UniProt Q5TZA2 1-2017)	binds
B1	binds
B2	binds
